Experimental data published in paper doi:10.1101/594382.
Results are given in words; binding and its absence hold for the method and conditions named. Binding calls can cover weak binding; strength is not graded here.

Target: T1, Bacillus subtilis FolE, zinc dependent GTP cyclohydrolase (B. subtilis) (UniProt P19465)
T1 sequence: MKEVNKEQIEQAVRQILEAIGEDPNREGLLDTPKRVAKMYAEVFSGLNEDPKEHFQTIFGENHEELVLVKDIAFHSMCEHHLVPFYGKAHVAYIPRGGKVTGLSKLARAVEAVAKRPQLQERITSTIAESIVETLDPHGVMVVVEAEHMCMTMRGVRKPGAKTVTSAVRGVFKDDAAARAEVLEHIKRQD
Test: two-hybrid

With “Acinetobacter baylyi ZagA homolog (A. baylyi)” the binding was “binds”.
